Results are given in words; binding and its absence hold for the method and conditions named. Binding seen in cells or lysates may run through a third protein. Some results given as binding are weak or reduced against the parent protein; the word gives no strength.
Legend:
[1] = molecular target: HSP90AA1, endogenous in AML12 cells (mouse (endogenous in AML12)) (UniProt P07901); test: co-IP; endogenous co-IP in AML12 cells treated with PO for 12 h; anti-USP14 or anti-HSP90AA1 rabbit antibody with protein G agarose; IgG as control
[2] = molecular target: CYP2E1, tagged, expressed in AML12 cells (exogenous IP) (mouse) (UniProt Q05421); test: co-IP; exogenous IP in AML12 cells (Fig. S5A-B)
[3] = molecular target: Heat shock protein 90 alpha family class A member 1 (HSP90AA1), tagged, expressed in HEK-293T cells (mouse) (UniProt P07901); test: co-IP; exogenous co-IP; HEK-293T cells cotransfected with tagged plasmids; lysis buffer 150 mM NaCl, 10 mM HEPES pH 7.4, 1% NP-40; lysates incubated overnight at 4 °C with Flag or Myc affinity agarose; washed six times, eluted with glycine, immunoblot

Sequences of proteins named here, by UniProt entry; tags and fusion partners are left off.
UniProt Q05421: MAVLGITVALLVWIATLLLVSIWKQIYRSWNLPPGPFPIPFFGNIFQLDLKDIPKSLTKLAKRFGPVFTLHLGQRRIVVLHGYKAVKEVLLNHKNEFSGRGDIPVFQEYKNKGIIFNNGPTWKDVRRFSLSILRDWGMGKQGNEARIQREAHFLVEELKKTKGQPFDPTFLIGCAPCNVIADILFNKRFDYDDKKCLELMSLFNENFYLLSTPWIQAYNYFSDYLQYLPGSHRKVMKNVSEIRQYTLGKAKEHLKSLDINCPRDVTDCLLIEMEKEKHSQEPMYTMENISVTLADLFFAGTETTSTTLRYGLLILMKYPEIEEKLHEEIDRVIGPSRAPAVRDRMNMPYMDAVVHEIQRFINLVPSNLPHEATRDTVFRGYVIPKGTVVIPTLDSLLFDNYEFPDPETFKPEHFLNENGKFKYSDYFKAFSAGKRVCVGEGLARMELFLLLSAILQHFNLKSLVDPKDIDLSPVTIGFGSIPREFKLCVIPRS
UniProt Q9JMA1: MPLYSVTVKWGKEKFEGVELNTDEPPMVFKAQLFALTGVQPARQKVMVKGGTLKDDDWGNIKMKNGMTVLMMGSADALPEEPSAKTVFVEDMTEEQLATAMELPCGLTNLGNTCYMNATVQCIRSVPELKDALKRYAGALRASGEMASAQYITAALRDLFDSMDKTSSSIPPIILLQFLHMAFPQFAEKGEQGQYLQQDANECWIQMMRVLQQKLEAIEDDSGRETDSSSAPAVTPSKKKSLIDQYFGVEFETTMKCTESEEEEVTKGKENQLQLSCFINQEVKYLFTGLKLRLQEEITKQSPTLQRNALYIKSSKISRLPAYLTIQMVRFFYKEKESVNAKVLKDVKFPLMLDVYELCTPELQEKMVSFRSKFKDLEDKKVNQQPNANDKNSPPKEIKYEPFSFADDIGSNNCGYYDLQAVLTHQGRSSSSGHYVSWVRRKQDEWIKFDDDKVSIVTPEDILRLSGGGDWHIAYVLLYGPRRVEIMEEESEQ

Q: How did the binding [1] turn out when “USP14, endogenous in AML12 cells (from UniProt Q9JMA1 1-493) (enzyme)” was run?
A: Its binding is “binds”.

Q: Which binding [2] does the source give for “USP14, tagged, expressed in AML12 cells (exogenous IP) (from UniProt Q9JMA1 1-493) (enzyme)” here?
A: Its binding is “no binding”.

Q: How did the binding [3] turn out when “Ubiquitin-specific proteinase 14 (USP14), full length, tagged, expressed in HEK-293T cells (from UniProt Q9JMA1 1-493) (enzyme)” was run?
A: Its binding is “binds”.
